Assay results reported in patent US4551479A, “Compounds with anti-convulsive properties” (Akzo N.V., priority 1983, dated 1985).

What was measured:
[1] = Rotarod (neurotoxicity and sedation); details: ip
[2] = Shuttle box (neurotoxicity and sedation); details: ip

## CN1C(=O)CN=C(c2ccccc2)c2cc(Cl)ccc21 [diazepam]
[1]
  TD50: 1.3 mg/kg
[2]
  TD50: 8 mg/kg
